Experimental data: PubChem BioAssay AID1508588 (Peter MacCallum Cancer Centre, 2020)

- Test: 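Knock-downs boosting vemurafenib effects on melanoma cell growth or lactate release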 (primary screen)
- System: human WM266.4 melanoma cells (BRAF V600 mutant)
- Knock-down reagent: siRNA pool against human genes, 40 nM
- Time to read-out: 96 h from transfection to read-out
- Treatment: vemurafenib 300 nM (about IC25), added 48 h after transfection, for 48 h; comparison arm got DMSO vehicle only
- Read-out: 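Ratios to non-targeting siRNA for cell gain, counted as DAPI nuclei after minus before drug and averaged over two replicates, and for absorbance-read medium lactate per cell; both binned into fold-change classes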
- Scale: cell gain with vemurafenib: higher = more cell gain than with non-targeting siRNA; lactate per cell with vemurafenib: higher = more lactate made per cell
- Call rule: 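Enhancement is called by pairing each knock-down's vehicle-arm and drug-arm fold-change classes for viability or glycolysis; which class combinations qualify is not given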
- Meaning of the calls: active = enhances vemurafenib effect; inactive = no enhancement seen
The deposit covers about 18,000 reagents; shown is a part drawn at random. Of all reagents, 790 (4.4%) got an active call. 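Calls rest on a combination of fold-change classes in drug and vehicle arms, not all shown here.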 Unmarked entries are inactive. Some reagents were tested in more than one well and are listed for each.

Depletion of PATJ (GeneID 10207) came out at: cell gain with vemurafenib 0.54; lactate per cell with vemurafenib 0.84.
SCFD2 (GeneID 152579) showed cell gain with vemurafenib 0.8; lactate per cell with vemurafenib 0.68.
After knock-down of MPP4 (GeneID 58538), the record shows cell gain with vemurafenib 0.73; lactate per cell with vemurafenib 0.84.
MS4A7 (GeneID 58475) gave cell gain with vemurafenib 0.3; lactate per cell with vemurafenib 1.75.
After knock-down of SLC7A4 (GeneID 6545), the record shows cell gain with vemurafenib 0.64; lactate per cell with vemurafenib 0.63.
MPV17 (GeneID 4358) scored cell gain with vemurafenib 0.34; lactate per cell with vemurafenib 0.4.
For OLFM1 (GeneID 10439), the values are cell gain with vemurafenib 0.81; lactate per cell with vemurafenib 0.9.
Knock-down of ORAI1 (GeneID 84876) gave: cell gain with vemurafenib 0.32; lactate per cell with vemurafenib 1.11.
Against ORAI1 (GeneID 84876), the values are cell gain with vemurafenib 0.47; lactate per cell with vemurafenib 1.54.
With knock-down of SPINT4 (GeneID 391253), the screen gave cell gain with vemurafenib 0.84; lactate per cell with vemurafenib 1.21.
OR52B6 (GeneID 340980) scored cell gain with vemurafenib 0.2; lactate per cell with vemurafenib 1.48.
Depletion of OR2A1 (GeneID 346528) gave: cell gain with vemurafenib 0.74; lactate per cell with vemurafenib 0.6.
With knock-down of OR8B8 (GeneID 26493), the record shows cell gain with vemurafenib 0.01; lactate per cell with vemurafenib 1.58.
For ATP6V0E2 (GeneID 155066), the values are cell gain with vemurafenib 0.59; lactate per cell with vemurafenib 0.94.
KDSR (GeneID 2531) scored cell gain with vemurafenib 1.05; lactate per cell with vemurafenib 0.76.
With knock-down of LIPE (GeneID 3991), the screen gave cell gain with vemurafenib 0.34; lactate per cell with vemurafenib 0.97.
